Source: patent US20230060715A1, “USE OF FXR AGONISTS FOR TREATING AN INFECTION BY HEPATITIS D VIRUS” (INSERM (INSTITUT NATIONAL DE LA SANTÉ ET DE LA RECHERCHE …, priority 2020, published 2023)
At least one compound was matched to its structure with a doubt left.

Assays:
HDV particles = experiment: Specific infectivity of secreted HDV particles on naïve Huh7.5-NTCP cells
HDV = experiment: Secretion of HDV RNA from HBV/HDV coinfected dHepaRG cells (RT-qPCR of concentrated supernatants); conditions: 10 μM for 10 days, control

## Nc1ccn([C@@H]2CS[C@H](CO)O2)c(=O)n1 [lamivudine]
HDV particles; Huh7.5-NTCP infected with supernatants of treated dHepaRG, 6 days post infection
  intracellular HDV RNA levels with inoculum 100 versus 500 vge/cell: dose dependent increase
HDV particles; producer cells treated 10 μM, Huh7.5-NTCP infected with 500 vge/cell
  specific infectivity of HDV particles: not modified
HDV
  effect on HDV RNA secretion: did not significantly modify
